Target: T1, PepT1 (Homo sapiens, UniProt P46059)
T1 construct: expressed in transfected cells; host or cells: HeLa cells (ATCC), transient transfection with FUGENE6
T1 sequence (P46059 1-708): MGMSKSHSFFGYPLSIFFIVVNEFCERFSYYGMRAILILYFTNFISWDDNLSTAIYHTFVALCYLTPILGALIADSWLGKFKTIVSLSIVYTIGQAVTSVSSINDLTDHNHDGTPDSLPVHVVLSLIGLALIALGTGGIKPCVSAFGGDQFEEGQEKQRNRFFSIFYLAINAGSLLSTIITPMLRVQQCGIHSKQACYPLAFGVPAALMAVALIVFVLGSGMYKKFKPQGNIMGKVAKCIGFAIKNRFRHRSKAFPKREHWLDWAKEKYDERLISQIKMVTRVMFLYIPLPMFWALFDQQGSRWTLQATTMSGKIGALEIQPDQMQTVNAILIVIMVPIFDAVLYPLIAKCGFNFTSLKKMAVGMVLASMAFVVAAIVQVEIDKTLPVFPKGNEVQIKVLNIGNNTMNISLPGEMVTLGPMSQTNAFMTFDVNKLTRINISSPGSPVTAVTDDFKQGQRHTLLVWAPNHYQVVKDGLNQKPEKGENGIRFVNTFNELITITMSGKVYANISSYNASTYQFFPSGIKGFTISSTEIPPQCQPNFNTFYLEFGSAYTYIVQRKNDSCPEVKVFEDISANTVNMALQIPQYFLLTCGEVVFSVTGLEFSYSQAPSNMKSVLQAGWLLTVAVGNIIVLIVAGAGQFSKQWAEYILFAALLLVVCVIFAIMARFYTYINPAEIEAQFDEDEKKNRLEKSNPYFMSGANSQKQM
Test: In Vitro PepT1 GlySar Inhibition Screen
Format: cell-based
Settings: negative and positive controls run in parallel, n=18-19
Description: PepT1 assays are established to examine the ability of the amino acid prodrug compounds to interact with the intestinal absorption transporter PepT1.
HeLa cells, derived from human cancer cells, (American Type Culture Collection) are grown in Hyclone Medium (Invitrogen, Cat# SH30243) containing 10% fetal bovine serum (FBS), 0.1 mM non essential amino acids (NEAA), and 100 units/mL penicillin with 100 μg/mL streptomycin at 37° C. in a 5% CO2 humidified atmosphere. The cell line is used for up to 40 passages and then discarded. Frozen cells in 1 mL vials are thawed in water bath for 1-2 minutes and added to 5 mL of cell medium at 37° C. Each of the T-flasks is provided with 8.5 mL of the fresh medium and 1.5 mL of the cell stock. Cells are passaged twice during a week. […] Cells are incubated at 37° C., until ready for the uptake study. […]
Inhibition of PEPT1-mediated [glycyl-1-2-^14C]Glyclysarcosine (GlySar) uptake activity is measured in the cells cultured in the 24-well plates 24-hours post transfection as previously published (Zhang et al. 2004. J. Pharm. Exper Ther. 310:437-445). […] A 200 μL aliquot is removed and radioactivity is determined by liquid scintillation counting to measure the [^14C]Gly-Sar present in each of the incubation wells. A no inhibitor control is established and the percent inhibition of each prodrug is calculated with respect to this control.

GlySar uptake inhibition, mean values ± standard deviation (controls): 37.5±14.7%
Compound: CC1=C(C(=O)O)N2C(=O)[C@@H](NC(=O)[C@H](N)c3ccccc3)[C@H]2SC1 [Cephalexin, reference compound]
